A short description of data set [1]: Fmoc solid-phase peptide synthesis; 2-chlorotrityl chloride resin; DIC/OxymaPure (SPPS); EDC/HOAt, PyAOP/HOAt (solution). Conditions: whole synthesis.
Data set [2] in a line: general procedure: hybrid (solid and solution phase) peptide synthesis; 2-chlorotrityl chloride resin (200-400 mesh, 1.50-1.90 mmol/g, Bachem); DIC/OxymaPure (SPPS); EDC/HOAt, PyAOP/HOAt (solution). The note with it: coupling step.
A further data set can be described thus: peptide synthesis. Conditions: whole synthesis.

In data set [1], “(3S,6R,9R,12S,15S)-3-(4-(Allyloxy)phenyl)-6,9-diisopropyl-12,13” returned an isolated yield of 68% yield.
In turn, Boc-Protected Fragment ABCD-D,L gave a step yield in data set [2] of 55% yield.
Substance “Methyl ((2R)-2-(2-((R)-2-amino-3-methylbutanamido)-3-methyl-3-nitrobutanamido)-5-((tert-butoxycarbonyl)-amino)pentanoyl)-L-valinate” gave an isolated yield in the data set “peptide synthesis” (starting from protected D-ornithine 2) of 66% yield.
In the case of myxovalargin A, in “peptide synthesis”, the difficulty met result was “the final removals of the protecting groups again faced the hurdles already menti” and the outcome is listed as “Initial attempts to synthesize MyxA under solution phase conditions had to be terminated unsuccessfully”.
